Library screening results

Mtb growth Cornell: 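Whole-cell assay for inhibitors of Mycobacterium tuberculosis growth, labelled Cornell in the record; the read-out is not stated. The concentration is filed as 10 mM, unlikely as a test dose, so the dose is not known. The record gives no direction; compounds strong in two other growth screens of this library score well above the rest, so higher reads as stronger inhibition. About 53,000 compounds were tested under these conditions; 1.7% (about 900) showed 50% or more at least once.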
Mtb heat-shock: 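Assay on Mycobacterium tuberculosis, filed only as a heat shock assay from Cornell; the read-out is not stated. The concentration is filed as 10 mM, unlikely as a test dose, so the dose is not known. Direction is inferred from retests: higher values go with stronger inhibition. Size under these conditions: about 69,000 compounds, about 930 of them at 50% or above in at least one test.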

Each number is a percent effect as filed. The controls that fix the scale are not given in the record; negative values are as filed. The compounds are a random part of those screened. A dash means the value is not listed here; it may have been measured.

SMILES | Mtb growth Cornell | Mtb heat-shock
O=C(CCCc1nnc(-c2ccccc2)o1)N1CCN(CCO)CC1 | 0.535% | 2.287%
CCc1n[nH]c(C2CN(C(=O)CCn3ccccc3=O)CCO2)n1 (centres unmarked) | -15.63% | 0.8609%
CCc1ccc(-n2nnc(C(=O)O)c2-c2ccncc2)cc1 | 14.57% | 9.054%
Cc1cc(NC(=O)CCN2CCCCC2Cn2cncn2)no1 (centres unmarked) | -29.62% | 1.626%
O=C(Cn1cc(I)cn1)N1CCCC1 | - | -1.154%
O=C(O)C(F)(F)F.[H][C@@]12OCCN(c3ncccn3)[C@@]1([H])CC[C@H]2OCCN1CCCC1 | 25.98% | -53.75%
Cc1cccc(C)c1NC(=O)CNC(C)Cc1ccsc1 (centres unmarked) | -30.39% | -12.58%
NC(=O)CN1CCC(NCc2cc(C(F)(F)F)ccc2Cl)CC1 | 14.73% | -40.78%
CCCNC(=O)N1CCC(Oc2cc(C)ccc2F)(C(=O)O)CC1 | -14.74% | -14.47%
Cc1nc(C)n(CC2CCCN(CC(=O)N3CCCC3)C2)n1 (centres unmarked) | - | 1.226%
CCC(C)(C)NC(=O)c1ccc(-c2ccco2)[nH]c1=O | 22.79% | 9.149%
CCNc1cc2c(nn1)CCN(C(=O)c1cccc3c1OCO3)C2 | - | -7.722%
CCn1nc(C)c(CCNC(=O)c2cccc(-n3cccn3)c2)c1C | 23.74% | -8.64%
O=C(Nc1ccccc1OC(F)(F)F)C1CCS(=O)(=O)C1 (centres unmarked) | 4.356% | 19.99%
CCN(C(=O)c1nc2c(s1)CCCN2Cc1ccccc1)C(C)C | -29.08% | 52.41%
COC(=O)CC(C)(C)CC(=O)N1CCC(C(F)(F)F)CC1 | 15.18% | -1.161%
Nc1nc(N)c2c(n1)OC1(CCN(C(=O)CC3CCCCN3)CC1)C2 (centres unmarked) | 6.757% | -4.806%
CCN1CCc2cc(-c3cncn3CCNC3CCS(=O)(=O)C3)ccc21.Cl (centres unmarked) | 12.29% | 13.72%
Cn1cnnc1CN1CCC2(CCCN(C3CCCCC3)C2=O)C1 (centres unmarked) | 8.326% | -17.62%
Cc1cccc(CS(=O)(=O)Cc2ccn(C)c(=O)c2)c1 | 8.999% | 2.585%
CCNC(=O)[C@@H]1C[C@H](N)CN1c1cc(CC)nc(N(C)C)n1 | - | -124.1%
O=C(CN1CCCC1c1nc2cc(F)ccc2[nH]1)NCc1ccccn1 (centres unmarked) | -1.35% | -20.62%
O=C(O)c1c[nH]c2cc(NS(=O)(=O)c3cccc(F)c3F)ccc12 | - | 14.56%
CCN(CC1CCCN(CCc2cccc(OC)c2)C1)C(=O)CSC (centres unmarked) | -14.83% | -25.44%
CN1CCN(C(=O)c2ccc3c(c2)[nH]c(=O)n3C2CCCC2)CC1 | -39.36% | -1.989%
CC(C)c1nn2c(-c3cnn(C)c3)nnc2s1 | 20.36% | -2.341%
CCc1nc(NS(=O)(=O)c2cc(C)ccc2Br)no1 | 12.29% | -2.72%
O=C(N1CCOCC1)N1CCN(c2ccncc2Cl)CC1 | - | -4.219%
CCCC(=O)NC(Cc1ccc(C)cc1)c1ccccn1 (centres unmarked) | -9.049% | -28.37%
CCc1nccc(CN2CCC(CNC(=O)Nc3ccccc3)C2)n1 (centres unmarked) | -3.542% | -7.131%
CCOCCN1CCN(CCC(=O)N2CCCCC2)CC1 | 2.985% | -23.04%
CC(=O)c1cccc(NC(=O)CN2CCCCC2C)c1 (centres unmarked) | -12.02% | -13.78%
Fc1cccc(C2(CNC3CCOC4(CCOCC4)C3)CCOCC2)c1 (centres unmarked) | -17.92% | 9%
N#Cc1ccc(CN2CCCCC2Cn2cncn2)cc1 (centres unmarked) | - | -29.09%
Cc1ncsc1CCNC(=O)Cn1nc(C)n(Cc2ccccc2)c1=O | -3.735% | 0.6065%
Cc1cccc(CN2C(=O)CCC23CCN(C(=O)N2CCCC2)CC3)n1.O=C(O)C(F)(F)F | 6.492% | -3.758%
Cc1cc(CN(C)C2CCCN(Cc3noc(C)n3)C2)no1 (centres unmarked) | -15.02% | -14.42%
COc1c(CNCc2nnc3n2CCCCC3)c(C(C)C)nn1C.Cl | -4.214% | -9.851%
CN(C)CCNC(=O)C1Cc2nc(-c3ccsc3)sc2N1CC1CC1.O=C(O)C(F)(F)F (centres unmarked) | 13.7% | -30.71%
CC(CO)NC(=O)Nc1ccc(COC2CCCC2)cc1 (centres unmarked) | - | -3.868%
CC(CNC(=O)c1c[nH]nn1)Oc1ccccc1Br (centres unmarked) | 2.75% | -17.58%
CCc1ccc(CN(C)C(=O)c2cnc3c(c2)nc(N)n3CC)nc1 | 21% | 12.37%
Cc1ccc(-c2n[nH]cc2CNCCn2cccn2)o1 | 3.341% | 12.21%
O=C(COCCc1ccccc1)N1CCCC(n2cccn2)C1 (centres unmarked) | 15.41% | 11.3%
Cc1nc2nc(C)c3c(=O)n(-c4ccn[nH]4)ccc3n2n1 | -3.813% | -4.499%
CCC1=NC(SCC(=O)c2ccc(OC)cc2)c2cc(CC)sc2N1 (centres unmarked) | - | -11.02%
O=C(O)C1(Cc2cccc(-c3ccc(F)c(F)c3)c2)CCOCC1 | 23.85% | 1.501%
COCC(=O)N[C@@H]1CN(Cc2ccc3c(c2)OCCO3)C[C@H]1O | -16.06% | -27.88%
O=C(c1ccc(O)c(Cl)c1)N1CCN(c2nccs2)CC1 | 19.4% | 1.697%
CC1(C)CN(C(=O)CCc2nc(-c3ccncc3)no2)CCO1 | -9.123% | 0.5864%
CCc1ccc(C(=O)Nc2ccc3c(c2)N(C)CCN(C)C3)o1 | 18.49% | 0.1575%
COc1ccc(CNC(=O)NC2CCN(CC(F)F)CC2)cc1C | -44.51% | 0.8562%
Cc1nc(-c2noc3ccc(C(=O)NCCN(C)C)cc23)co1 | 22.4% | -12.29%
Cl.Nc1ncnc2nc(C3CCCCN3)ccc12 (centres unmarked) | 36.65% | 0.2138%
CN(C)c1cccc(C(=O)N2CCC(c3n[nH]c(C4CC4)n3)CC2)c1 | -10.82% | 2.678%
CCN(CC)C1(Cc2cc(-c3ccccn3)on2)COC1 | 0.9872% | -7.733%
CCCc1cncnc1N1CCC2(CCC(=O)N(CCOC)C2)CC1 | -26.49% | -40.18%
[H][C@]12CCC[C@@]1(COCc1cccc(C)n1)CN(C(=O)Cc1ccco1)C2 | -1.349% | 7.192%
NC(=O)N1CC[C@H](O)[C@@H]1Cc1cccnc1.O=C(O)C(F)(F)F | 6.614% | -3.918%
[H][C@@]12C[C@H](C(=O)Nc3cccnc3)[C@@]([H])(CN(S(=O)(=O)CC(C)C)C1)O2 | 9.44% | -25.81%
[H][C@]12CC[C@]([H])(CN(C(=O)c3ccc(S(N)(=O)=O)cc3)C1)N(CC=C(C)C)C2 | -3.555% | 9.787%
Cc1cc(CNC(=O)c2cn(CCC3CCCCN3)nn2)on1 (centres unmarked) | 6.45% | -1.109%
Cc1cnc(CCNc2cccc(CC3CCCNC3)n2)s1.Cl (centres unmarked) | 21.65% | -36.84%
COc1ccc(Cl)cc1CS(=O)(=O)Cc1nc(C)no1 | - | 62.62%
CC(=O)N[C@@H]1CN(C(=O)c2ccoc2)C[C@H]1c1ccc(C)cc1 | 5.115% | 3.964%
CNc1nc(CNC(=O)Nc2cccc(OC)c2)cs1 | - | 13.43%

Some entries from above, unchanged:

SMILES,Mtb growth Cornell,Mtb heat-shock
Cc1ccc(-c2n[nH]cc2CNCCn2cccn2)o1,3.341%,12.21%
CCN(CC1CCCN(CCc2cccc(OC)c2)C1)C(=O)CSC (centres unmarked),-14.83%,-25.44%
CC(=O)c1cccc(NC(=O)CN2CCCCC2C)c1 (centres unmarked),-12.02%,-13.78%
CCc1ccc(-n2nnc(C(=O)O)c2-c2ccncc2)cc1,14.57%,9.054%
COC(=O)CC(C)(C)CC(=O)N1CCC(C(F)(F)F)CC1,15.18%,-1.161%
Cc1cccc(CS(=O)(=O)Cc2ccn(C)c(=O)c2)c1,8.999%,2.585%
CC(C)c1nn2c(-c3cnn(C)c3)nnc2s1,20.36%,-2.341%

From ChEMBL document CHEMBL3988442, “University of Dundee, Small-Polar-MMV Screening Library” (2021).